Measured values from publication PMC6595177.
These are yes or no findings as the source states them, for the method shown. Binding seen in cells or lysates may run through a third protein. Some results given as binding are weak or reduced against the parent protein; the word gives no strength. For part of these data: Where a sequence is shown, tags or fusion partners need not be part of it. Values belong to the substance of their own block, whether it stands above or below them.

By UniProt entry, the sequences of proteins in these tests, tags left out. Where a name states a change or a piece, a line headed by the entry shows the natural chain unless it says otherwise.
UniProt Q8R455: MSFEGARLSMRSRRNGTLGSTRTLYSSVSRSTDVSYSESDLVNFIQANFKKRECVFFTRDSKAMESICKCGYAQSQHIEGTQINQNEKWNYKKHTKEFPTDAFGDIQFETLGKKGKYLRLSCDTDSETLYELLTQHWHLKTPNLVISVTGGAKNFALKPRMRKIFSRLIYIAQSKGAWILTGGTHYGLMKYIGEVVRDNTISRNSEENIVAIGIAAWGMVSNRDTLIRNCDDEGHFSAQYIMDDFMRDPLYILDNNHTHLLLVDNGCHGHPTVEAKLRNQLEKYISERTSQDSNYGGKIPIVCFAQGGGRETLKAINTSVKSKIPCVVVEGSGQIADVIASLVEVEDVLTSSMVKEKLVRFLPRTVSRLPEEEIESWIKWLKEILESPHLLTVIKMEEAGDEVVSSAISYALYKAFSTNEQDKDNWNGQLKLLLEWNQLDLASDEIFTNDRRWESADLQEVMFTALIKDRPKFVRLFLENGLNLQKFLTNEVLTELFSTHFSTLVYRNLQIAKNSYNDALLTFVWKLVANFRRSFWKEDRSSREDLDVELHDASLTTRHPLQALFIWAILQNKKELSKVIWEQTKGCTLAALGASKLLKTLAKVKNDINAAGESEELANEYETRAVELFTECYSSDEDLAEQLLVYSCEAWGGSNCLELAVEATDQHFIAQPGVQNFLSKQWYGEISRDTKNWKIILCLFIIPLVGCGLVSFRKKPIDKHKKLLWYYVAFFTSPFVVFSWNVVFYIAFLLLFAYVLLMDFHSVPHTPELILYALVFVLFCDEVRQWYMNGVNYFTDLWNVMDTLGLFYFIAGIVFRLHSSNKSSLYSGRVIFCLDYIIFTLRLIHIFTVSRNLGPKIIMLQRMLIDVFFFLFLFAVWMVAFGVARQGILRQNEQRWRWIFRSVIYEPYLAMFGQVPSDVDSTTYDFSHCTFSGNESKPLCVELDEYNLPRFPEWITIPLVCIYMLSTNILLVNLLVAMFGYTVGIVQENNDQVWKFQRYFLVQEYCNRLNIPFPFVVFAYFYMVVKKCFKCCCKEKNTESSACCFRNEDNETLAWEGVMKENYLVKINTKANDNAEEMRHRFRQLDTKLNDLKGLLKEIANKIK
UniProt P50148: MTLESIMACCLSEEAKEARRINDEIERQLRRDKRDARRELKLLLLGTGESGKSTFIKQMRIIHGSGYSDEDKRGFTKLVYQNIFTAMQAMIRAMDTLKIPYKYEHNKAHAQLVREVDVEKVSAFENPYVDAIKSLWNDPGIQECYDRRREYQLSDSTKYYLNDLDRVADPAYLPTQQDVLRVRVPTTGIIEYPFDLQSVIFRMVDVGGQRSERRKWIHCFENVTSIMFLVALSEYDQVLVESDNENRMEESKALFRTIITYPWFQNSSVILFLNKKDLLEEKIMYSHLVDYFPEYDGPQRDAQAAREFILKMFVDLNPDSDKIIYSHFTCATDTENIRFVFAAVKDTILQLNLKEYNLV
UniProt P35367: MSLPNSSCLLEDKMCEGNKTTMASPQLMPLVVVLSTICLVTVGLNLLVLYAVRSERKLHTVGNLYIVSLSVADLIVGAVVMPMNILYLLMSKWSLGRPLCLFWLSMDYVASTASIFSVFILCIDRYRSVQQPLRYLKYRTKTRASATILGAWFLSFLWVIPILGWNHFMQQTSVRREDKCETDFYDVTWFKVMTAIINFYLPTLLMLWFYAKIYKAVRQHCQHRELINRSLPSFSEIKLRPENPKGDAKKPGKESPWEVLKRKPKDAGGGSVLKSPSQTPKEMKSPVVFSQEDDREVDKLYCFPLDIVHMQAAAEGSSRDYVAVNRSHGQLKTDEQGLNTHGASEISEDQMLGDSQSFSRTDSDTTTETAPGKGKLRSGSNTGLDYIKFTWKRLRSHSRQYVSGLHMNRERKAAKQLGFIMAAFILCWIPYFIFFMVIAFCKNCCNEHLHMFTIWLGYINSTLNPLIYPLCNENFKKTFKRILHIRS

Columns and labels:
[1] = target: T1, 6xHis-tag PLCβ1 (UniProt P10687); test: pull-down; nickel beads on cell lysate containing PLCβ-his and Gαq Q209L, with or without added HEK293 cell lysate expressing TRPM8, 4°C overnight; bound Gαq detected with anti-Gαq
T1 sequence: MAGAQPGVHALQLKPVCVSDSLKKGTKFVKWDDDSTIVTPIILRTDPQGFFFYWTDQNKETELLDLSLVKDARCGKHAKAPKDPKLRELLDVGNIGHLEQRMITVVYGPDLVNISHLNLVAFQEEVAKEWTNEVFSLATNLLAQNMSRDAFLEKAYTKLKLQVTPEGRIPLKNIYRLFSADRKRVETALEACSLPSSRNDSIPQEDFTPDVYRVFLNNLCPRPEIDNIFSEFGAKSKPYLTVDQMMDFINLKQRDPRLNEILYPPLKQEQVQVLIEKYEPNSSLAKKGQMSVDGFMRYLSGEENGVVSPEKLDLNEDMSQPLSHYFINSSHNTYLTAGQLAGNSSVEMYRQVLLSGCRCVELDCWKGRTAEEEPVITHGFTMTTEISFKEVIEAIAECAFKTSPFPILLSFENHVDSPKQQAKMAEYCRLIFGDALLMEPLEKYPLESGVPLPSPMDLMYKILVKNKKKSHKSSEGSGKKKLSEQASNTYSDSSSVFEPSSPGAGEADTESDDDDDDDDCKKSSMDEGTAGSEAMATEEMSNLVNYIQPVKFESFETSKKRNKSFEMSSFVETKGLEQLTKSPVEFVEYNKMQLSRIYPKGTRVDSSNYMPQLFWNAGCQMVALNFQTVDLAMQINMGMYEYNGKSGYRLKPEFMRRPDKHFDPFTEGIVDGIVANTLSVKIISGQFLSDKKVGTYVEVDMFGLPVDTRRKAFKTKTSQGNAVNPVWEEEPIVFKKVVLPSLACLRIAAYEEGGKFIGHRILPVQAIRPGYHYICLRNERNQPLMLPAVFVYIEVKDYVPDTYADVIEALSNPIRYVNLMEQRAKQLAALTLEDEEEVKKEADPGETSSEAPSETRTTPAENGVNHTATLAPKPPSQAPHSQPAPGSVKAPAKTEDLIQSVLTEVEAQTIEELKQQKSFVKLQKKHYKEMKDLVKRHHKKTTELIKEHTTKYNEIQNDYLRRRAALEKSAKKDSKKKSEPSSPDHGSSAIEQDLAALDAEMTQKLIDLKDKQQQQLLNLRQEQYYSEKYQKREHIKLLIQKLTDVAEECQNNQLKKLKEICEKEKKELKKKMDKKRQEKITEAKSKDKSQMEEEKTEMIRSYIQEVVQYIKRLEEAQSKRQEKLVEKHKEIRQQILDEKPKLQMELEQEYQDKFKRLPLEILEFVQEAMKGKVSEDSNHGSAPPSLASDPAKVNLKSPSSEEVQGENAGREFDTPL

[2] = target: Rat TRPM8-V5-His (rat) (UniProt Q8R455); test: pull-down; nickel beads (Ni-NTA) on lysate of HEK293 cells expressing TRPM8-V5-His with HA-B2R or HA-H1R; 20mM Tris-HCl pH7.4, 300mM NaCl, 1% NP-40, 10% glycerol, 0.2mM EDTA, 20mM imidazole, 4°C overnight; blot with anti-HA and anti-V5
[3] = target: Gαq Q209L (UniProt P50148); test: pull-down; nickel beads on cell lysate containing PLCβ-his and Gαq Q209L, with or without added HEK293 cell lysate expressing TRPM8, 4°C overnight; bound Gαq detected with anti-Gαq

binding [1]: binds
Substance: Gαq Q209L (from UniProt P50148 1-359)

binding [2]: no binding
Substance: HA-H1R (histamine receptor H1R) (from UniProt P35367 1-487)

binding [3]: binds
Substance: Rat TRPM8-V5-His (from UniProt Q8R455 1-1104)
